These results are taken from the supplement of paper PMC10338343.

± gives the standard deviation. This is a selection; strong and weak results do not stand in their true shares. Many entries were measured with a wide error.

For this assay, the system named is MIWI (PIWIL1) piRISC loaded with piRNA #1 (30 nt). The assay can be described thus: pre-steady-state target cleavage rate (min^-1); MIWI and MILI are mouse PIWI proteins and EfPiwi is from a freshwater sponge; tags in brackets are library labels; higher = faster piRNA-guided slicing of the target. Conditions: guide: piRNA #1 5'p-UGAGGUAGUAGGUUGUAUAGUAUCCAGAGG; auxiliary factor: 500 nM mouse GTSF1. Put shortly:
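Sequencing of uncleaved targets, normalised to depth and to weakly complementary targets, was the readout of this Cleave-'n-Seq assay. A transcribed, DNA-blocked target RNA library (0.1 nM) was mixed with 1 nM active affinity-purified piRISC carrying one synthetic guide, with or without 500 nM GTSF1 partner protein, in HEPES–potassium acetate buffer at 33 °C for 0–8 or 0–960 min. Three trials were pooled, k3 was capped at 0.0001 min^-1, and a burst-and-steady-state fit gave the pre-steady-state cleavage rate.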
CGUCUGGAUACUAUACAACCUACUACCUGA: the “pre-steady-state target cleavage rate” value stood at 0.517 ± 0.044.

Consider GGAGUGGAUACUAUACCAACCUACUACCUCA, for which the “pre-steady-state target cleavage rate” value amounted to 0.0192 ± 0.0054.

With GGUCUGGAUACUAUACAACCUACUAGCUGA, the “pre-steady-state target cleavage rate” value was 0.000554 ± 0.0069.

Take GCUCUCGAUACAAUACAACCUACUACCUCA: the “pre-steady-state target cleavage rate” value came out at 2.07 ± 0.12.

With GGAGACCUAUGAAUACAAGCUACUACCUCA, the “pre-steady-state target cleavage rate” value was determined as 0.00163 ± 0.0034.

Take GGACUGGAUACUAUACAACUUACUACCUCA: the “pre-steady-state target cleavage rate” value stood at 0.518 ± 0.023.

Consider GGGCUGGAUACUAUACAACCUACUACCUCA, for which the “pre-steady-state target cleavage rate” value worked out at 1.9 ± 0.12.

As for CCUCUGCGAUACUAUACAACCUACUACCUCA, the “pre-steady-state target cleavage rate” value amounted to 2.19 ± 0.12.

In the case of GGAGACCUAUGAUAACCAACCUACUACCUCA, the “pre-steady-state target cleavage rate” value is 0.000247 ± 0.011.

Regarding GGAGACCUAUGAUUACGACCUACUACCUCA, the “pre-steady-state target cleavage rate” value is 0.000644 ± 0.0039.

In the case of GGUCUGGCAUACUAUACAACCUACUACCUCA, the “pre-steady-state target cleavage rate” value worked out at 1.86 ± 0.12.

Consider GCUCUGCAUUCUAUACAACCUACUACCUCA, for which the “pre-steady-state target cleavage rate” value is 1.65 ± 0.11.

For GGAGACCUAUGAUAACAACCUACUACCGCA, the “pre-steady-state target cleavage rate” value amounted to 0.00137 ± 0.0048.

In the case of CCUCCUGGAUACUAUACAACCUACUACCUCA, the “pre-steady-state target cleavage rate” value was found to be 2.25 ± 0.13.

In the case of GCUCUGGAUACUAUACAACCGUACUACCUCA, the “pre-steady-state target cleavage rate” value was 0.00396 ± 0.0043.

With GGACUGGAUACUUUACAACCUACUUCCUCA, the “pre-steady-state target cleavage rate” value is 0.00278 ± 0.0028.

As to GGAGUGGAUACUGAUACAACCUACUACCUCA, the “pre-steady-state target cleavage rate” value came out at 1.3 ± 0.098.

In the case of GCUCCUGGAUACUAUACAACCUACUACCUCA, the “pre-steady-state target cleavage rate” value worked out at 2.13 ± 0.11.

As to GGAGACCUAUCUAUACUACCAACUACCUCA, the “pre-steady-state target cleavage rate” value is 0.00109 ± 0.0053.

Take GGAGACCUAUGAUAUGUAGGAACUACCUCA: the “pre-steady-state target cleavage rate” value amounted to 0.000234 ± 0.013.

Take GGAGACCUAUGAUUGCAACCUACUACCUCA: the “pre-steady-state target cleavage rate” value turned out to be 0.00106 ± 0.0036.

Take GCUCUGGAUACUAUACAACCUACUACCUAA: the “pre-steady-state target cleavage rate” value was 1.83 ± 0.12.

Take “CCUCUGGAUACUAUACAACCUACUACCUCA [g2:g30:cont:t1A]”: the “pre-steady-state target cleavage rate” value stood at 1.96 ± 0.12.
